{
  "source": "paper PMC12146375",
  "target": "T1, VdAHA1-nLUC (Verticillium dahliae) (UniProt G2XIU4)",
  "T1 sequence": "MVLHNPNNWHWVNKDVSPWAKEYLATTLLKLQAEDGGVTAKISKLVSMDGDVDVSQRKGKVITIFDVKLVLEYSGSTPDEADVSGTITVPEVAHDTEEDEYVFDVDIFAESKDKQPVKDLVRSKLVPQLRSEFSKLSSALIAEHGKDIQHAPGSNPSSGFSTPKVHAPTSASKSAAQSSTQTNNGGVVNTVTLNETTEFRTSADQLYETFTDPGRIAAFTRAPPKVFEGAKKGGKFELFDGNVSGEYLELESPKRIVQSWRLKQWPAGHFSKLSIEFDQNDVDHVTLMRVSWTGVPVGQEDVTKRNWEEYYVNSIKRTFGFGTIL",
  "test": "split reporter; luciferase complementation (LCI): VdAHA1-nLUC and VdHSP90-1-cLUC co-infiltrated by Agrobacterium AGL1 (1:1) into 4-week-old tobacco leaves, signal read with a cooled CCD after 48 h",
  "note": "No constants are given. Whether binding was seen depends on the method and setting. In cells and extracts the contact can be indirect. Binding can be weak; no strength is given. Sequences can lack the tags named with a protein.",
  "data": [
    {"substance": "VdHSP90-1-cLUC (Verticillium dahliae)", "values": [
      {"measurement": "binding", "value": "binds"}
    ]}
  ]
}
